This note sets out measurements from paper PMC10352136.

Chains of the proteins cited; added tags and fusions are not shown.
UniProt Q13596: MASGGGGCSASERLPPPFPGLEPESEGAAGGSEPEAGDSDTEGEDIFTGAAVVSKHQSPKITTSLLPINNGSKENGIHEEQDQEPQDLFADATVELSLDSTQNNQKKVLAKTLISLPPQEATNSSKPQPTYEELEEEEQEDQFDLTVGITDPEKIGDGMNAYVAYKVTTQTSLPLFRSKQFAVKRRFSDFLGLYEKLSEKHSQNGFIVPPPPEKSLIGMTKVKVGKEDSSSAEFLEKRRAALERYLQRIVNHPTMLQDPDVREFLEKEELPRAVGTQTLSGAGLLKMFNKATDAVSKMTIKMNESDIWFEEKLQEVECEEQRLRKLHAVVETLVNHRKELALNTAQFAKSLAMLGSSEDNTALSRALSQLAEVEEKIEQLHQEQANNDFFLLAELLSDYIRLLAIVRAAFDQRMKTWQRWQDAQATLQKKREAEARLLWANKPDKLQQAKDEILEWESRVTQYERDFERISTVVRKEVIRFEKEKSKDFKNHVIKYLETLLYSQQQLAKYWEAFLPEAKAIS

These are yes or no findings as the source states them, for the method shown.

Assay [1] concerns the target T1, SNX5^FL (full-length sorting nexin 5) (human), Q9Y5X3.
T1 chain: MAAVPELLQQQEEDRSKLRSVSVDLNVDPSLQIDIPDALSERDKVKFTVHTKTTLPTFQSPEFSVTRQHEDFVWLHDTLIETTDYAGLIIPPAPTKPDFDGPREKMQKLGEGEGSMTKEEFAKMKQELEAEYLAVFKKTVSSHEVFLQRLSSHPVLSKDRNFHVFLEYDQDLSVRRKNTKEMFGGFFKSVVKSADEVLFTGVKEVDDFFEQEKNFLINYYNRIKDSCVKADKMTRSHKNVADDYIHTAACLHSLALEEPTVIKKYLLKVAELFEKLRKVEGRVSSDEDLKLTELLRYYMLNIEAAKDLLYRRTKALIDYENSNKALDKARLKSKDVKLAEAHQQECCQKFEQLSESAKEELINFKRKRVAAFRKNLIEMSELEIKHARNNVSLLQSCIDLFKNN
The experiment in a line: SEC-MALS; 100 μl of protein at 1 mg ml^−1 in 150 mM NaCl, 0.5 mM TCEP, 10 mM HEPES pH 7.5; Superdex 200 Increase 10/300 GL; both purified. Conditions: remark: other sources report otherwise. (SEC sorts molecules by how far they enter the pores of the column.)

Assay [2] deals with SNX1^BAR–SNX5^BAR heterodimer (human) (UniProt Q13596+Q9Y5X3). The experiment in a line: condition: 805 µM peptide titrated into 21 µM complex; ITC; 25 °C, 300 mM NaCl, 0.5 mM TCEP, 25 mM HEPES pH 7.5; CI-MPR in the syringe (SNX1^PX in the syringe for its test with the peptide); one-site model; both purified.
In assay [3] the target is SNX1^FL (full-length sorting nexin 1) (human) (UniProt Q13596). The experiment in a line: condition: 242 µM peptide titrated into 19.6 µM SNX1; ITC; 25 °C, 300 mM NaCl, 0.5 mM TCEP, 25 mM HEPES pH 7.5; CI-MPR in the syringe (SNX1^PX in the syringe for its test with the peptide); one-site model; both purified.

B1: SNX5^FL (full-length sorting nexin 5), Q9Y5X3 1-404 (protein)
chain: T1 chain
B1: the binding result in assay [1] is recorded as “no binding (tested: 1 mg ml^−1)”.

B2: CI-MPR_(2347–2375) peptide (bipartite sorting motif of the cation-independent mannose-6-phosphate receptor tail) (peptide, UniProt P11717 2347-2375)
peptide: SNVSYKYSKVNKEEETDENETEWLMEEIQ
In the case of B2, the binding entry in assay [2] and in assay [3] was “no binding” throughout.
